doi:10.1101/2023.08.05.552118
Results are given in words; binding and its absence hold for the method and conditions named. Binding seen in cells or lysates may run through a third protein. Some results given as binding are weak or reduced against the parent protein; the word gives no strength. For some of these results: Where a sequence is shown, tags or fusion partners need not be part of it.

Chains of the proteins cited; added tags and fusions are not shown. Lines headed by an entry give the natural chain unless they say otherwise; changes in a name come on top.
UniProt Q63HN8, whole entry: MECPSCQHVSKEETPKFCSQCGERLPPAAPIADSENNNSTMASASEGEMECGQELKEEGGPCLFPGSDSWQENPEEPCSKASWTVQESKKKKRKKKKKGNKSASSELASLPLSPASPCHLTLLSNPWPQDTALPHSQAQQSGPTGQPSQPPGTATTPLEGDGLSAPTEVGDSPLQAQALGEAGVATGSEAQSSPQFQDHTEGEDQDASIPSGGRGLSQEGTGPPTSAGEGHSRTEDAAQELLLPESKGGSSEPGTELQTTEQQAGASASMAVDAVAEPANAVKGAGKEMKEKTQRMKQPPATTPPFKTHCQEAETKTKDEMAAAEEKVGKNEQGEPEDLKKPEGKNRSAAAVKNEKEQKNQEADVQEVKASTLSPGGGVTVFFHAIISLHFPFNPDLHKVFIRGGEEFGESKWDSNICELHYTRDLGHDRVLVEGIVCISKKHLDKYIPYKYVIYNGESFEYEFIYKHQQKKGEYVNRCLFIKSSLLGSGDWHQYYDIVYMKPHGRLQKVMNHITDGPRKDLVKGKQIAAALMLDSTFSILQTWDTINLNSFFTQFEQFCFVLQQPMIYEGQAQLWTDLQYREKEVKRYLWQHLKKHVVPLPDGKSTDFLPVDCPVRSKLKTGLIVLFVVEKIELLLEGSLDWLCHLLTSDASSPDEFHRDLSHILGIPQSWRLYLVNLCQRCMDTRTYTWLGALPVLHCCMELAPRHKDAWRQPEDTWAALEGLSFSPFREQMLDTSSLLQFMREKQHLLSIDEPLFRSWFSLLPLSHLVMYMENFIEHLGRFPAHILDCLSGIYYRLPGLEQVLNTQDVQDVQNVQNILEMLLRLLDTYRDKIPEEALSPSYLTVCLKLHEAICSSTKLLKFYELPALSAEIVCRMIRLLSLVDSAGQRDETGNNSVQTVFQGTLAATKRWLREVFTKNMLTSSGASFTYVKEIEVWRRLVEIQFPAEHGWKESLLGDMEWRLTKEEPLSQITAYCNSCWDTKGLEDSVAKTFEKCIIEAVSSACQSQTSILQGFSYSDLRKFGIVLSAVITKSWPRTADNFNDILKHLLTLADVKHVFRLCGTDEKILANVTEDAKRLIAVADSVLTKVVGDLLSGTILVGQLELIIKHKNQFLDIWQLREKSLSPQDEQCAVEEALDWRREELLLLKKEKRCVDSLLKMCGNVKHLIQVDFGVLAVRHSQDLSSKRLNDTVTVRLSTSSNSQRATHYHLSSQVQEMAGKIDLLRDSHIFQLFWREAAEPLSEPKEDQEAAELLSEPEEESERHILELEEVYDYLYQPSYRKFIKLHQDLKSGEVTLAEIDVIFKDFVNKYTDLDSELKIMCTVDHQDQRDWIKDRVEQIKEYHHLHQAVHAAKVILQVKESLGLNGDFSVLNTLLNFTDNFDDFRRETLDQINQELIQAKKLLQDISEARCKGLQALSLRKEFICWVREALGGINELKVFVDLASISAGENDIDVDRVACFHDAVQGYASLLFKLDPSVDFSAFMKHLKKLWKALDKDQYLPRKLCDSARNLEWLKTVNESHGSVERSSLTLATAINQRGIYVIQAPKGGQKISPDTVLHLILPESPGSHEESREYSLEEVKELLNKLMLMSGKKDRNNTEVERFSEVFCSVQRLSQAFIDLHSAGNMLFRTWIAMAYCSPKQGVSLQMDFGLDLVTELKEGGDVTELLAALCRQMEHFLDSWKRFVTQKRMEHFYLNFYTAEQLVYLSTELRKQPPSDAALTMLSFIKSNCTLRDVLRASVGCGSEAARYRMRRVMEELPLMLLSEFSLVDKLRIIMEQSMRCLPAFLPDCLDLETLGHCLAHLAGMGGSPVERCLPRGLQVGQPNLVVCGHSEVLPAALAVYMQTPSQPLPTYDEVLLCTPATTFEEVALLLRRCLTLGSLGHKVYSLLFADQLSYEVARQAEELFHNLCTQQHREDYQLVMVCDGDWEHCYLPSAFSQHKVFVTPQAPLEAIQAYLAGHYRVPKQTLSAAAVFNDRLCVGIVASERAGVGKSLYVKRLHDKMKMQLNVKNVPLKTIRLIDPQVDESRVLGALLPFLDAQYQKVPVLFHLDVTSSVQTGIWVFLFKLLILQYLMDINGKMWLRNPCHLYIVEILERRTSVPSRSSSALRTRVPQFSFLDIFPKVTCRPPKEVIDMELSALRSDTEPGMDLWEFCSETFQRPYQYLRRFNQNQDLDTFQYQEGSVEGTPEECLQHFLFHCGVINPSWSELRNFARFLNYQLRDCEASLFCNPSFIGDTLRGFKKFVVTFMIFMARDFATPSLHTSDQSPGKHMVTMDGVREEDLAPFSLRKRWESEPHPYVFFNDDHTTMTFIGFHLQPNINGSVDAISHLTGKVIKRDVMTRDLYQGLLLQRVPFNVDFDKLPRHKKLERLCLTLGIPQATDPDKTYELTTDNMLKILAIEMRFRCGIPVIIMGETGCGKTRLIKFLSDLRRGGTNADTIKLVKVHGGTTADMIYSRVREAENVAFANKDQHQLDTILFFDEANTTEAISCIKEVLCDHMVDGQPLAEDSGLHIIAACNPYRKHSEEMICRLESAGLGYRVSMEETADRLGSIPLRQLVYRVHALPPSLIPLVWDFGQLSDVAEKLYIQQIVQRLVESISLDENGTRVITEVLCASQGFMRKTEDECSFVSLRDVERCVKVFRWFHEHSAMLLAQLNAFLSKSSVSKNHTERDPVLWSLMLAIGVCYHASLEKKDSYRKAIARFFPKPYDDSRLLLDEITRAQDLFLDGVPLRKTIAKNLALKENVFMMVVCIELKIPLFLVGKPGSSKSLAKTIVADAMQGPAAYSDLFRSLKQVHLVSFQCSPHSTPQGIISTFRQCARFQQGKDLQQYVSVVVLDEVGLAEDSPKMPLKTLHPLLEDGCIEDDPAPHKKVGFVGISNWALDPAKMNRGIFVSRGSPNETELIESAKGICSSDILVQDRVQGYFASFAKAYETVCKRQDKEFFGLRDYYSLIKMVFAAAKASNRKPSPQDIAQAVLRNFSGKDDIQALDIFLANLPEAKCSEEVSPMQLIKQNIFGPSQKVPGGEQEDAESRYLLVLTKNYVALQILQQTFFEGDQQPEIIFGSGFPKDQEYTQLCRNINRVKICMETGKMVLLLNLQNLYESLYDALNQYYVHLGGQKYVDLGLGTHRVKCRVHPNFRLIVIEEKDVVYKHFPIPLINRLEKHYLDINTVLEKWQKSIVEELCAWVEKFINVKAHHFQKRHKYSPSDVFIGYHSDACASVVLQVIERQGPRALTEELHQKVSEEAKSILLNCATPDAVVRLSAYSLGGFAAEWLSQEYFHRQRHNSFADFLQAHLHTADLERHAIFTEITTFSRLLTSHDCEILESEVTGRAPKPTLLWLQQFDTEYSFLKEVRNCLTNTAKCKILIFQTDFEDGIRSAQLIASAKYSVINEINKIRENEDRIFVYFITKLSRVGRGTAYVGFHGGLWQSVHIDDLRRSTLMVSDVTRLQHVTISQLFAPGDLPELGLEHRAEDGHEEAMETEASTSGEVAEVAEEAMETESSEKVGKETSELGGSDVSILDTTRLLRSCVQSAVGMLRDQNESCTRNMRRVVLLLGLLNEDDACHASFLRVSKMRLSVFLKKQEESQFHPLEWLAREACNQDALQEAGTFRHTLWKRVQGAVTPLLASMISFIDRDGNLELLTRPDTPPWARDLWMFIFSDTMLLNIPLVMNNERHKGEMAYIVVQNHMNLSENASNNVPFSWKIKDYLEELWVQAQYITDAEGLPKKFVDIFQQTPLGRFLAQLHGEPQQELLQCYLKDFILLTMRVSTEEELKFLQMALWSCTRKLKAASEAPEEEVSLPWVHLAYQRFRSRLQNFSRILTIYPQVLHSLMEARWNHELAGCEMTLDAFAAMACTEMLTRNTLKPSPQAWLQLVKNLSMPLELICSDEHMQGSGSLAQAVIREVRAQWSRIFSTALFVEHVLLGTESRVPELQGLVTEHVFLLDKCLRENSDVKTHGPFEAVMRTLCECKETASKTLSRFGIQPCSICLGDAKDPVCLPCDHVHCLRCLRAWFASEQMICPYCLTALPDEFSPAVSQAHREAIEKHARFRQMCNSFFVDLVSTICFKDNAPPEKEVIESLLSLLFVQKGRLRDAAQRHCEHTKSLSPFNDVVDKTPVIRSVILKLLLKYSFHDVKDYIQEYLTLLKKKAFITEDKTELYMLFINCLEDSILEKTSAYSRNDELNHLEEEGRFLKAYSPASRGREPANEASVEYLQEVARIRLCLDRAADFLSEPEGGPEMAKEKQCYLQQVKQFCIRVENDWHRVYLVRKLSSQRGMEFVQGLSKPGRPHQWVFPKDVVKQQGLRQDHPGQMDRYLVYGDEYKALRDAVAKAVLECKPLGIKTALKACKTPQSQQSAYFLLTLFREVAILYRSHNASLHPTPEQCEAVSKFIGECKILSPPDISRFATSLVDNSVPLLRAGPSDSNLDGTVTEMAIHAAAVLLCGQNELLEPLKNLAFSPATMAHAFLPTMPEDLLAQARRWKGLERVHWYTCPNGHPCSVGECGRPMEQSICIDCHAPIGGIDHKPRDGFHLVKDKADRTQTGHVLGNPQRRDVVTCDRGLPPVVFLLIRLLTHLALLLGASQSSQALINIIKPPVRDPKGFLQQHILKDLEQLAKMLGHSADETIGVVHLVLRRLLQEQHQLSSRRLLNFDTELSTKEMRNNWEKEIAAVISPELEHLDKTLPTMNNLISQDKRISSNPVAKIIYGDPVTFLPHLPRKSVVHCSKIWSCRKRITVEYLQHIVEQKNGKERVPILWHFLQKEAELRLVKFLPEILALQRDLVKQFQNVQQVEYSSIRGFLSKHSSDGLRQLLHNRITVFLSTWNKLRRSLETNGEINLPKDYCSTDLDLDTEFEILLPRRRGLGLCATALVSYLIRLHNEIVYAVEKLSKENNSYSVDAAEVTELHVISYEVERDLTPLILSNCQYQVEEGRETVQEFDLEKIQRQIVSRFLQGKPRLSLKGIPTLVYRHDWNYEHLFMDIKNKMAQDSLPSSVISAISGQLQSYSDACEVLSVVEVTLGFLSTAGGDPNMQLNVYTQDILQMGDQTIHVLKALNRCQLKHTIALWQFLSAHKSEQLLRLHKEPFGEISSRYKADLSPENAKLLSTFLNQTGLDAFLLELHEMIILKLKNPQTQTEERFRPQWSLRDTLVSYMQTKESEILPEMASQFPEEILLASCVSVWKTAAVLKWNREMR

T1: HA-tagged substrate trapping mutant (D181A) of mouse PTP1B (mouse) (UniProt P35821)
T1 sequence: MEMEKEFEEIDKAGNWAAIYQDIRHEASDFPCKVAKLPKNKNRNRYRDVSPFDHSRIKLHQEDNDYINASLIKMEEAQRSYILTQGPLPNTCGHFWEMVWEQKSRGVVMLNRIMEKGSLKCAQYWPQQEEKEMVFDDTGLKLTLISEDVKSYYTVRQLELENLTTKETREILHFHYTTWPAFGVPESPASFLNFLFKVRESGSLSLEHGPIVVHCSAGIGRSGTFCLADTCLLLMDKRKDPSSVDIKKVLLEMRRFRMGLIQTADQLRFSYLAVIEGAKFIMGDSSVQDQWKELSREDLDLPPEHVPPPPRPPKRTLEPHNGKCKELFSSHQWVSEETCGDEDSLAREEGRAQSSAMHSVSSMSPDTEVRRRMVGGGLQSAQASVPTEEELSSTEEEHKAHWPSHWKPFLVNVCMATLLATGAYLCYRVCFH

B1: SPATA2 (protein, UniProt Q9UM82 1-520)
chain: MGKPSSMDTKFKDDLFRKYVQFHESKVDTTTSRQRPGSDECLRVAASTLLSLHKVDPFYRFRLIQFYEVVESSLRSLSSSSLRALHGAFSMLETVGINLFLYPWKKEFRSIKTYTGPFVYYVKSTLLEEDIRAILSCMGYTPELGTAYKLRELVETLQVKMVSFELFLAKVECEQMLEIHSQVKDKGYSELDIVSERKSSAEDVRGCSDALRRRAEGREHLTASMSRVALQKSASERAAKDYYKPRVTKPSRSVDAYDSYWESRKPPLKASLSLRKEPVATDVGDDLKDEIIRPSPSLLTMASSPHGSPDVLPPASPSNGPALLRGTYFSTQDDVDLYTDSEPRATYRRQDALRPDVWLLRNDAHSLYHKRSPPAKESALSKCQSCGLSCSSSLCQRCDSLLTCPPASKPSAFPSKASTHDSLAHGASLREKYPGQTQGLDRLPHLHSKSKPSTTPTSRCGFCNRPGATNTCTQCSKVSCDACLSAYHYDPCYKKSELHKFMPNNQLNYKSTQLSHLVYR

Key:
Experiment in all cases: co-IP
[1] = molecular target: T1, HA-tagged substrate trapping mutant (D181A) of mouse PTP1B (mouse)
3x-FLAG-RNF213^Y1275F = 3x-FLAG-RNF213^Y1275F (UniProt Q63HN8)
3x-FLAG-RNF213 = 3x-FLAG-RNF213 (UniProt Q63HN8)

Molecule	binding [1]	further results
3x-FLAG-RNF213 (from UniProt Q63HN8 1-5207)	binds	
3x-FLAG-RNF213^Y1275F (from UniProt Q63HN8 1-5207)	binds weakly	
GFP-RNF213 (from UniProt Q63HN8 1-5207)		binding (3x-FLAG-RNF213^Y1275F): binds
B1		binding (3x-FLAG-RNF213): binds
